The values below come from PubChem BioAssay AID2685 (National Center for Advancing Translational Sciences (NCATS), 2010).

The list shows a part of the results. Further columns of the screen follow, without active or inactive calls. The list favours compounds with an active or inconclusive main result. Potencies come from curve fits of mixed quality, noted in brackets.

Usually AC50 stands for the concentration at which the activity in the assay is half-maximal. A lower AC50 goes with activity at low concentration.

The nature of the test: qHTS Assay for Lipid Storage Modulators in Drosophila S3 Cells.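 On cell number change: cells counted by Cell Tracker Red CMTPX staining in the red channel.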 Particulars: BODIPY lipid droplet fluorescence, 18-24 h; for cell number change: measured here: cell count max response, cells fed with added oleic acid. The method in brief:
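Drosophila S3 cells got compounds at several concentrations plus oleic acid (400 uM solution). Laser-scanning cytometry with 488 nm excitation read lipid droplets at 500-530 nm and cells at 575-640 nm. Percent activity was relative to 20 uM Triacsin C.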
(In general: In qHTS, concentration-response curves come from the screen itself.)

[1] abbreviates: measured here: cell number channel AC50, cells fed with added oleic acid.
The mark [2] stands for this setting: measured here: lipid fluorescence (Fed channel) AC50, cells fed with added oleic acid.

As for `Nc1cccc(-c2nc3ccccc3s2)c1`, the cell number change came to 18.5%. Also, the AC50 under setting [1] is 2.06 µM [rising, partial curve]. Further, the AC50 under setting [2] is 20.6 µM [rising, partial curve].
Consider `COC(=O)CNC(=O)COC(=O)/C=C/c1ccc(F)cc1`, for which the cell number change was -12.7%. In addition, the concentration at half-maximal activity (AC50) under setting [1] is 0.58 µM [rising, full curve].
`COc1ccc(Cn2nnnc2C(c2cc3cccc(C)c3[nH]c2=O)N2CCOCC2)cc1` (centres undefined): the cell number change came out at 44.7%. Also, the AC50 under setting [1] was 14.6 µM [rising, partial curve]. Further, under setting [2], the AC50 is 23.1 µM [rising, partial curve].
As to `Cc1cccc(C)c1NC(=O)c1cnn(-c2ccccc2)c1C`, the cell number change is 1.06%.
In the case of `O=C(NC(Cc1c[nH]c2ccccc12)C(=O)O)/C(=C/c1ccc(F)cc1)NC(=O)c1ccccc1` (centres undefined), the cell number change was determined as 0.362%. Moreover, the AC50 under setting [2] was 0.731 µM [falling, single point].
In the case of `CCOC(=O)N1CCN(C(=O)C2CCC(=O)N2C(C)C)CC1` (centres undefined), the cell number change is -7.1%.
As to `O=C(COC(=O)CCC(=O)c1ccc(F)cc1)Nc1ccc(N2CCOCC2)cc1`, the cell number change is -20.3%. For the same compound, the AC50 under setting [1] was 0.82 µM [falling, full curve]. Besides, the AC50 under setting [2] was 2.59 µM [falling, full curve, poor fit].
Turning to `N#Cc1ccccc1OCc1nnc(-c2ccccc2Br)o1`, the cell number change worked out at 45.4%. For the same compound, under setting [1], the AC50 is 18.4 µM [rising, single point].
In the case of `CN(C)c1ccc(/C=N/NC(=O)c2ccco2)cc1`, the cell number change is 13.5%.
Turning to `Cc1cccc(NC(=O)Cn2nnc(C(=O)NCc3ccco3)c2N)c1`, the cell number change was 35.1%. Under setting [1], the half-maximal activity concentration (AC50) was 0.517 µM [rising, full curve, poor fit]. For the same compound, the AC50 under setting [2] is 3.26 µM [rising, partial curve].
Take `N#CCCN(C(=O)COc1ccc(F)cc1Br)c1ccccc1F`: the cell number change was 35%. Moreover, under setting [1], the AC50 was 29.1 µM [rising, single point].
`CC1CCN(C(=O)C2CCN(c3nnc(-n4cccc4)s3)CC2)CC1`: under setting [2], the AC50 is 6.51 µM [rising, single point].
With `CC(C)OC(=O)[C@H]1[C@H](c2ccc(Cl)cc2)[C@@](C#N)(C(N)=O)[C@@H]2C=CC(C(N)=O)=CN21`, the cell number change turned out to be 63.1%. In addition, the AC50 under setting [1] is 29.1 µM [rising, single point]. The AC50 under setting [2] is 29.1 µM [rising, single point].
`CC(C)(C)c1ccc(C(=O)Nc2ccc(Oc3cccnc3)nc2)cc1`: the cell number change was -49.1%. Moreover, the AC50 under setting [1] was 29.1 µM [falling, single point]. In addition, the half-maximal activity concentration (AC50) under setting [2] was 29.1 µM [falling, partial curve, poor fit].
Turning to `CN1CCN(c2ccccc2NC(=O)c2cc(Br)ccc2Cl)CC1`, the cell number change came to 6.61%. Also, the AC50 under setting [2] is 29.1 µM [falling, single point].
For the compound `CC(C)(C)OC(=O)N1Cc2[nH]c3ccccc3c2C[C@@H]1C(=O)O`, the cell number change was -18.3%. Under setting [2], the AC50 is 5.17 µM [rising, full curve, poor fit].
In the case of `COc1ccc2c(=O)cc(-c3ccccc3)n(C)c2c1`, the cell number change came out at 25.8%. Moreover, the AC50 under setting [2] is 8.2 µM [rising, full curve, poor fit].
Turning to `COc1ccc(-n2cnnc2SCC(=O)Nc2cc(S(=O)(=O)N3CCCCC3)ccc2C)cc1`, the cell number change is -49.8%. Also, under setting [2], the AC50 was 6.51 µM [rising, partial curve].
As for `Cc1ccc(CNC(=O)CSc2nc3ccccc3[nH]2)cc1`, the AC50 under setting [2] was 6.51 µM [rising, single point].
For the compound `O=C(NC(=S)N1CCN(c2ccc(O)cc2)CC1)c1cccs1`, the cell number change was determined as 16.5%. Moreover, the AC50 under setting [1] is 0.13 µM [falling, full curve, poor fit].
As to `C/C(=N\Nc1cccc2cccnc12)c1ccccc1O`, the cell number change was 32%.
In the case of `C=CCn1c(COc2ccc(F)cc2)nnc1SCC(=O)c1c[nH]c2c(CC)cccc12`, the cell number change was -24.4%. Moreover, under setting [2], the concentration at half-maximal activity (AC50) was 23.1 µM [falling, partial curve, poor fit].
Consider `CCOC(=O)c1ccccc1Cc1nc2ccccc2c(=O)[nH]1`, for which the cell number change is -0.29%. In addition, the AC50 under setting [1] was 3.26 µM [rising, partial curve]. Besides, under setting [2], the AC50 is 2.59 µM [rising, partial curve, poor fit].
Regarding `CCOC(=O)Cc1csc(NC(=O)C2C3C=CC(C3)C2C(=O)O)n1` (centres undefined), the cell number change came to 1.39%. The AC50 under setting [2] is 18.4 µM [falling, single point].
For the compound `O=c1c(Br)c(Br)cnn1-c1ccccc1`, the cell number change was -7.69%.
Take `CCNC(=O)OCC(CC)NC(=O)OCC(C)C` (centres undefined): the cell number change was -41.6%. Besides, the AC50 under setting [1] is 20.6 µM [falling, single point].
`Cc1ccccc1N1C(=O)C2C3CC(=O)C(c4ccccc43)C2C1=O` (centres undefined): the cell number change was -2.4%. The AC50 under setting [2] was 2.59 µM [falling, partial curve].
On to `COc1ccc(CCNC(=O)CC2Nc3ccccc3NC2=O)cc1OC` (centres undefined), for which the cell number change was -10.9%.
Still for that read-out and setting: then `CCC(C)c1ccccc1NC(=O)COc1ccc(-c2nnco2)cc1` (centres undefined), with 22.9%.
`O=C(Nc1nc2ccc(S(=O)(=O)N3CCCC3)cc2s1)c1ccco1`: the cell number change is -1.84%. For the same compound, under setting [2], the AC50 was 6.51 µM [falling, single point].
Consider `COc1ccccc1CCNC(=O)C(=O)NCC1CCCN1S(=O)(=O)c1ccccc1` (centres undefined), for which the cell number change is -29.8%.
For `O=C(CSc1cccc[n+]1[O-])N1CCc2ccccc21`, the cell number change worked out at 19.2%. Further, the AC50 under setting [2] was 1.84 µM [rising, full curve, poor fit].
Consider `O=C(COC(=O)c1cc(S(=O)(=O)Nc2ccccc2Cl)ccc1O)Nc1nc2ccccc2s1`, for which the cell number change is -10.9%. Moreover, under setting [1], the AC50 was 0.731 µM [rising, full curve, poor fit].
As to `CN(C)C(CNC(=O)c1ccc(NS(=O)(=O)c2ccc3[nH]c(=O)[nH]c3c2)cc1)c1ccccc1` (centres undefined), the cell number change is -6.02%.
For `COc1ccc(NC(=O)c2ccc(-c3ccc(-c4noc(C)n4)cc3C)cc2)cc1N1CCN(C)CC1`, the cell number change is -51.2%. The concentration at half-maximal activity (AC50) under setting [1] was 25.9 µM [falling, partial curve, poor fit]. Moreover, the AC50 under setting [2] is 5.8 µM [falling, partial curve, poor fit].
Consider `COc1ccc(C2/C(=C(/O)c3ccc4c(c3)CC(C)O4)C(=O)C(=O)N2CCN2CCOCC2)cc1OC` (centres undefined), for which the cell number change was -8.01%. Moreover, the concentration at half-maximal activity (AC50) under setting [2] was 1.46 µM [rising, partial curve].
`Cc1nn(Cc2ccccc2)c(C)c1CNC(=O)[C@H](C)N=C1NS(=O)(=O)c2ccccc21`: the cell number change is -22.9%. Besides, the half-maximal activity concentration (AC50) under setting [1] was 0.0517 µM [falling, full curve, poor fit]. Further, the half-maximal activity concentration (AC50) under setting [2] is 0.411 µM [falling, full curve].
On to `Cc1c(NC(=O)c2cc(-c3ccccc3O)on2)c(=O)n(-c2ccccc2)n1C`, for which the cell number change was 21.9%. Under setting [2], the concentration at half-maximal activity (AC50) was 0.291 µM [rising, partial curve, poor fit].
As for `Cc1c(CCO)c(=O)n(-c2ccccc2)n1S(=O)(=O)c1c(Cl)cc(Cl)cc1Cl`, the cell number change was -20.8%. In addition, under setting [2], the half-maximal activity concentration (AC50) is 0.164 µM [falling, full curve, poor fit].
As for `COc1ccc(S(=O)(=O)N(C)CC(=O)Nc2ccc3c(c2)OCCO3)cc1`, the cell number change is 48%. The AC50 under setting [1] was 14.6 µM [rising, single point].
For the compound `CC(Oc1ccccc1C(N)=O)C(=O)Nc1ccc(S(=O)(=O)N2CCCC2)cc1` (centres undefined), the cell number change was determined as 3.63%.
`CCOC(=O)C(C)N1C(=O)S/C(=C/c2cc(C)n(-c3ccccn3)c2C)C1=O` (centres undefined): the cell number change was -11.8%. For the same compound, the AC50 under setting [2] is 2.91 µM [rising, partial curve, poor fit].
As for `CC(C)Nc1nnc(SCC(=O)N2CCN(C(=O)c3ccco3)CC2)s1`, the cell number change turned out to be 1.84%. Further, the AC50 under setting [2] is 2.31 µM [rising, single point].
Regarding `Cc1c(C(=O)N2CCN(c3ncccn3)CC2)oc2ccc(Cl)cc12`, the cell number change was determined as 48%. Further, the half-maximal activity concentration (AC50) under setting [1] is 5.8 µM [rising, partial curve]. Under setting [2], the AC50 is 0.82 µM [rising, full curve].
For the compound `Cc1ccc(C(=O)Nc2nnc(S(=O)(=O)N3CCCCCC3)s2)cc1`, the cell number change came to 6.89%. The concentration at half-maximal activity (AC50) under setting [2] was 29.1 µM [rising, single point].
As to `CCOc1cc(C(=O)NCc2ccc(F)cc2)ccc1OCC(=O)N1CCCCC1`, the cell number change came to 47.7%. Besides, under setting [1], the AC50 is 25.9 µM [rising, partial curve]. Moreover, under setting [2], the AC50 is 29.1 µM [rising, partial curve].
Take `COC(=O)C1=C(O)/C(=C\c2ccc(OCC(=O)Nc3ccccc3)cc2)N=C1C`: the AC50 under setting [2] was 4.11 µM [rising, single point].
Turning to `CN(C)/C=N/c1sc2c(c1C(N)=O)CCCC2`, the cell number change stood at 19.9%. Moreover, the concentration at half-maximal activity (AC50) under setting [2] was 18.4 µM [rising, single point].
`N#Cc1ccccc1NC(=O)CSc1nccn1CCc1ccccc1`: the AC50 is 0.58 µM [rising, single point] under setting [1] and 0.58 µM [rising, single point] under setting [2].
Consider `Cc1ccc(/C=C/C(=O)O)cc1S(=O)(=O)NCCCO`, for which the cell number change is -82.8%. For the same compound, the concentration at half-maximal activity (AC50) under setting [1] is 32.6 µM [falling, single point].
As to `CCN1CCN(C(c2ccc(OC)cc2)c2nnnn2Cc2ccc3c(c2)OCO3)CC1` (centres undefined), the cell number change worked out at 28.9%. The half-maximal activity concentration (AC50) under setting [1] was 0.291 µM [rising, full curve, poor fit]. Moreover, the AC50 under setting [2] is 0.058 µM [rising, full curve, poor fit].
Regarding `O=C(CSCc1ccc(Br)cc1)N1CCCC1`, the cell number change was -13.1%. For the same compound, the concentration at half-maximal activity (AC50) under setting [2] was 29.1 µM [falling, single point].
For `CN1CCN(c2ccccc2NC(=O)c2ccc(N3CCCC3)c([N+](=O)[O-])c2)CC1`, the cell number change was -9.6%.
With `Cc1ccc(CNC(=O)c2ccc(NC(=O)C3=CSCCO3)cc2)cc1`, the cell number change was -8.55%. The half-maximal activity concentration (AC50) under setting [2] is 18.4 µM [rising, single point].
In the case of `Cc1cc(N2CCN(C(=O)c3ccco3)CC2)nc(-c2ccccc2)n1`, the cell number change was -33.2%. In addition, the half-maximal activity concentration (AC50) under setting [2] was 1.84 µM [falling, full curve, poor fit].
As for `O=c1[nH]c2ccccc2nc1/C=C/c1ccc(F)cc1`, the half-maximal activity concentration (AC50) under setting [2] was 10.3 µM [falling, partial curve].
As for `O=C(CSc1nnc(NC(=O)Cc2ccc(F)cc2)s1)NCc1ccco1`, the cell number change was -31.6%. Besides, the AC50 under setting [1] is 0.206 µM [falling, full curve]. In addition, under setting [2], the half-maximal activity concentration (AC50) was 0.82 µM [falling, full curve, poor fit].
On to `CC(/C=N/Nc1nc(N2CCCCC2)nc(N2CCCCC2)n1)=C\c1ccccc1`, for which the cell number change was determined as 2.32%.
Same read-out and setting: then `Cc1ccc(NC(=O)OCc2cccs2)cc1`, with 4.7%.
